# The supplement of paper PMC8256030
# Several values for one entry are separate records, joined by “and”; a condition that tells them apart may be missing. Equal values may be shown once. Where a name gives a salt, the structure may show the parent alone. The list shows a part of the results. This data set is noisy: repeats of one test often differ as much as different tests do.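 HEK293T cells were given each compound shortly before transfection with a reporter in which red mCherry is followed by the SARS-CoV-2 frameshift element and then GFP in the −1 frame, so GFP appears only after frameshifting.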
# Test system: HEK293T
# Test: percent viability (nuclei count) relative to control; higher = more viable cells
# Details: 10 µM; 24 h
row,Structure (SMILES),percent viability
1,CC(=O)N(C)C1(c2ccccc2)CCN(CCC[C@]2(c3ccc(Cl)c(Cl)c3)CCCN(C(=O)c3ccccc3)C2)CC1 [osanetant],239%
2,Nc1c2c(nc3ccccc13)CCCC2O (stereo not given) [velnacrine],342%
3,O=C(O)CCNC(=O)c1ccccc1 [betamipron],308%
4,C#C[C@]1(O)CC[C@H]2[C@@H]3CCC4=CC(=O)CC[C@@H]4[C@H]3C(=C)C[C@@]21CC [etonogestrel],247%
5,C[C@]12CCC(=O)C=C1[C@@H]1C[C@@H]1[C@H]1[C@@H]3[C@@H]4C[C@@H]4[C@@]4(CCC(=O)O4)[C@@]3(C)CC[C@@H]12 [drospirenone],129% and 246%
6,CN(CCc1ccccc1)CCc1ccccc1 [demelverine],192%
7,CO[C@@H]1[C@@H](OC)[C@H](C)[C@@](O)(CC(=O)O)O[C@H]1[C@H](C)[C@H]1O[C@@]2(CC[C@@](C)([C@H]3CC[C@@](C)([C@@H]4O[C@@H]([C@H]5O[C@](C)(O)[C@H](C)C[C@@H]5C)C[C@@H]4O[C@@H]4C[C@H](OC)[C@@H](OC)[C@H](C)O4)O3)O2)C[C@H](O)[C@H]1C [maduramicin],9.44%
8,N=C(N)c1ccc(OCCCOc2ccc(C(=N)N)cc2Br)c(Br)c1 [dibrompropamidine],172%
9,Cc1nccn1CC1CCc2c(c3ccccc3n2C)C1=O (stereo not given) [ondansetron],238%
10,CN[C@@H]1[C@H](O)[C@H](NC)[C@H]2O[C@@]3(O)C(=O)C[C@@H](C)O[C@H]3O[C@@H]2[C@H]1O,196%
11,NC(=O)c1ccccc1O [salicylamide],135%
12,OC[C@H]1O[C@H](O[C@]2(CCl)O[C@H](CCl)[C@@H](O)[C@@H]2O)[C@H](O)[C@@H](O)[C@H]1Cl,149%
13,O=S(=O)(O)CCSSCCS(=O)(=O)O [dimesna],333%
14,CO[C@@]1(NC(=O)CSCC#N)C(=O)N2C(C(=O)O)=C(CSc3nnnn3C)CS[C@@H]21 [Zefazone],276%
15,CN(C)CCc1c[nH]c2ccc(CS(=O)(=O)N3CCCC3)cc12 [almotriptan],185%
16,CC1=NS(=O)(=O)c2cc(Cl)ccc2N1,137%
17,CC(C)CCCC(C)N (stereo not given) [octodrine],124%
18,O=C(CCCN1CCC(O)(c2cccc(C(F)(F)F)c2)CC1)c1ccc(F)cc1 [trifluperidol],238%
19,CCCCC1=NC2(CCCC2)C(=O)N1Cc1ccc(-c2ccccc2-c2nnn[nH]2)cc1 [irbesartan],363%
20,CCCCCCOc1nsnc1C1=CCCN(C)C1 [xanomeline],177%

# For reference, part of the list above:
row,Structure (SMILES),percent viability
18,O=C(CCCN1CCC(O)(c2cccc(C(F)(F)F)c2)CC1)c1ccc(F)cc1 [trifluperidol],238%
19,CCCCC1=NC2(CCCC2)C(=O)N1Cc1ccc(-c2ccccc2-c2nnn[nH]2)cc1 [irbesartan],363%

# Additional results.

row,Structure (SMILES),percent viability
1,C[C@H]1C[C@H]2[C@@H]3CCC4=CC(=O)C=C[C@]4(C)[C@@]3(F)[C@@H](O)C[C@]2(C)[C@@]1(O)C(=O)COP(=O)(O)O,203%
2,CNC(=N)NC(=O)Nc1c(C)cccc1C [lidamidine],152%
3,CC(C)(O/N=C(\C(=O)N[C@@H]1C(=O)N2C(C(=O)[O-])=C(C[n+]3ccccc3)CS[C@H]12)c1csc(N)n1)C(=O)O [Fortaz],186%
4,CNC1COc2ccccc2C(O)C1 (stereo not given) [exepanol],199%
5,S=C1NCCC(COc2ccccc2)O1 (stereo not given) [tifemoxone],232%
6,CC[C@H]1OC(=O)[C@H](C)C(=O)[C@H](C)[C@@H](O[C@@H]2O[C@H](C)C[C@H](N(C)C)[C@H]2O)[C@](C)(OC)C[C@@H](C)C(=O)[C@H](C)[C@H]2N(CCCCn3cnc(-c4cccnc4)c3)C(=O)O[C@]12C [Ketek],317%
7,COc1ccc2cc(CCC(C)=O)ccc2c1 [nabumetone],207% and 343%
8,O=C(OC1C[C@@H]2CC3C[C@H](C1)N2CC3=O)c1c[nH]c2ccccc12 (stereo not given in full) [Dolasteron],77.6%
9,Cc1c(-c2ccccc2)oc2c(C(=O)OCCN3CCCCC3)cccc2c1=O [flavoxate],185%
10,CN1CCCCC1CCN1c2ccccc2Sc2ccc([S+](C)[O-])cc21 (stereo not given),379%
11,CC(C[N+](C)(C)C)OC(N)=O (stereo not given),295%
12,c1ccc(CN(CC2=NCCN2)c2ccccc2)cc1 [antazoline],382%
13,NC12CC3CC(CC(C3)C1)C2 [Amantadine·HCl],175%
14,CCN(CC)CCOC(=O)C1(C2CCCCC2)CCCCC1 [dicycloverine],131%
15,CC1=C(C(=O)O)N2C(=O)[C@@H](NC(=O)[C@H](N)c3ccc(O)cc3)[C@H]2SC1 [cefadroxil],191%
16,C[C@]12CCC(=O)C=C1C=C[C@@H]1[C@@H]2CC[C@@]2(C)[C@H]1CC[C@@]21CCC(=O)O1 [canrenone],143%
17,Cc1[nH]c(C)c(Cl)c(=O)c1Cl,166%
18,CCN1CCC[C@H]1CNC(=O)c1c(O)c(Cl)cc(Cl)c1OC [S(-)-Raclopride],254%
19,Cc1nc2c([nH]1)-c1ccccc1N(C(=O)c1ccc(NC(=O)c3ccccc3-c3ccccc3)cc1)CC2 [conivaptan],283%
20,CN1CCc2nc(C(=O)N[C@@H]3C[C@@H](C(=O)N(C)C)CC[C@@H]3NC(=O)C(=O)Nc3ccc(Cl)cn3)sc2C1 [Edoxaban],87.9%
